Measurements as given in article doi:10.1101/2024.07.01.601467.
Results are given in words; binding and its absence hold for the method and conditions named. In cells and extracts the contact can be indirect. Some binding calls cover weakened binding; strength is not graded here. For some of these results: Tags and fused reporters may be left off the sequences shown.

Sequences of proteins named here, by UniProt entry; tags and fusion partners are left off.
UniProt P04792: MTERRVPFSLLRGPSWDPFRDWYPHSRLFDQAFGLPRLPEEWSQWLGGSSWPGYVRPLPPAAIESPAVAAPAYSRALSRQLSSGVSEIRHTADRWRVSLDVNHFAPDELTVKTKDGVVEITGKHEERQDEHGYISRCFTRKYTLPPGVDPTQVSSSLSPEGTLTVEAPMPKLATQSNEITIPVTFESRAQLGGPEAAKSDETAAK
UniProt Q99755: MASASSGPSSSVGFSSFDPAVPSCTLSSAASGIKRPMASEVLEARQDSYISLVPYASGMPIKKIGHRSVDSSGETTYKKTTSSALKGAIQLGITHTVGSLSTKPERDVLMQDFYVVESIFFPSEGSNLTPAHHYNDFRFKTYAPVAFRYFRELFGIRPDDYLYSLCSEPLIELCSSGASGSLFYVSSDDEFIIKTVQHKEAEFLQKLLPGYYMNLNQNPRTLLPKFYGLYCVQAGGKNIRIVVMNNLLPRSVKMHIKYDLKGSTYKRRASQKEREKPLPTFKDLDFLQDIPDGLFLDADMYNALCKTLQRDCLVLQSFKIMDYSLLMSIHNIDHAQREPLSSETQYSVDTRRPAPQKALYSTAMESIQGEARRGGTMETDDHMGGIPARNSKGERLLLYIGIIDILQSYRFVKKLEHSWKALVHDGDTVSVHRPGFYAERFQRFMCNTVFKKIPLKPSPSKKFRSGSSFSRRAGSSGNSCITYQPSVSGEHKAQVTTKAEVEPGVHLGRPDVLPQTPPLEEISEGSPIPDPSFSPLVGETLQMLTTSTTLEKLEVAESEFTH
UniProt Q8NFU5: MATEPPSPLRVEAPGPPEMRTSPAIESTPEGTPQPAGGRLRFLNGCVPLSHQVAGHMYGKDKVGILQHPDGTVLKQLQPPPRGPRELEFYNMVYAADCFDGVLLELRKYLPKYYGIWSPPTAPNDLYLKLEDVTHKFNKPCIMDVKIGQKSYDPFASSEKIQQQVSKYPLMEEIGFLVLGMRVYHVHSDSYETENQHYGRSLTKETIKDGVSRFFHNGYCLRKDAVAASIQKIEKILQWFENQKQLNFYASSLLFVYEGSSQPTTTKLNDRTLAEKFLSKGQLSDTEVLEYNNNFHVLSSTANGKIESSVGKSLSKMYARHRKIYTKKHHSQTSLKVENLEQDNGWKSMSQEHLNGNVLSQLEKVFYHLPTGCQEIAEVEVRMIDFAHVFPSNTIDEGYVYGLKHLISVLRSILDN
UniProt Q9BTU6: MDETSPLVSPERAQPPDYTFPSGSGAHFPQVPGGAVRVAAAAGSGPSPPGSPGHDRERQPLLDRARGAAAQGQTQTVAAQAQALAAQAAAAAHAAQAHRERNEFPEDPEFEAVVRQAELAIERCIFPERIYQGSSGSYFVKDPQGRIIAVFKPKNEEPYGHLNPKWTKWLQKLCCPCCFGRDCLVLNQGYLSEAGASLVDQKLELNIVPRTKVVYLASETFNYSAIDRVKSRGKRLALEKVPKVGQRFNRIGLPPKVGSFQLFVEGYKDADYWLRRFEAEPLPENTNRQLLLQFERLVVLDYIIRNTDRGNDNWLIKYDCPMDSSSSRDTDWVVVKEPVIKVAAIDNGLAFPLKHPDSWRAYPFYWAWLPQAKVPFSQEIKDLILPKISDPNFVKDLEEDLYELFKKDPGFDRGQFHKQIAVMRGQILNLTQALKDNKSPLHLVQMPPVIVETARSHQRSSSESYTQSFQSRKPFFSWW

Experiments:
[1] = target: T1, speckle-targeted PIPKIα regulated-poly(A) polymerase (Star-PAP/TUT1), endogenous (human (endogenous in HeLa and MDA-MB-231)) (UniProt Q9H6E5); test: proximity ligation
T1 sequence: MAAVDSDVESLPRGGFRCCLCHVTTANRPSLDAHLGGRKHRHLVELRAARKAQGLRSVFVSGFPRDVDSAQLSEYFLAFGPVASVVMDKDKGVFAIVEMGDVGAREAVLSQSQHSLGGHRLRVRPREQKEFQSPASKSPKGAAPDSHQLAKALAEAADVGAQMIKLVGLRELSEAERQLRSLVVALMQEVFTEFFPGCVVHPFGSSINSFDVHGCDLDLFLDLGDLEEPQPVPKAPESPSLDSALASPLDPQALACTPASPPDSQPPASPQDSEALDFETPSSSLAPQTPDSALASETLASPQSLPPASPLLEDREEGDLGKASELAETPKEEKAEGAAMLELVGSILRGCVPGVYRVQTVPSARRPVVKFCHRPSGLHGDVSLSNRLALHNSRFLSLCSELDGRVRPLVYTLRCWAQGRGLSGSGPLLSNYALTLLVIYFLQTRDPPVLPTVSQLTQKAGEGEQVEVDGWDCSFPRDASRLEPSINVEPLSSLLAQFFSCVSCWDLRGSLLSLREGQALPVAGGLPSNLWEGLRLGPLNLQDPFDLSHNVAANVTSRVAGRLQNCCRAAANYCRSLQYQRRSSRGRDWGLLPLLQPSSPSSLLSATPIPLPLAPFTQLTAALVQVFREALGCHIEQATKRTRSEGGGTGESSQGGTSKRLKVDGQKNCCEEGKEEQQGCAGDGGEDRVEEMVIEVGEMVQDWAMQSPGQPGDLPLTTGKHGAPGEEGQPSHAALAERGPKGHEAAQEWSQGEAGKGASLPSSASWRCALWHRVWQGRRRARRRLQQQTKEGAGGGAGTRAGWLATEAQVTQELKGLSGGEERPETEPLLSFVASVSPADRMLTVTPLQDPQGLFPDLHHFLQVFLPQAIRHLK

[2] = target: T1, speckle-targeted PIPKIα regulated-poly(A) polymerase (Star-PAP/TUT1), endogenous (human (endogenous in HeLa and MDA-MB-231)); test: co-IP
Myc-Star-PAP = target: T2, Myc-Star-PAP (UniProt Q9H6E5); test: proximity ligation
T2 sequence: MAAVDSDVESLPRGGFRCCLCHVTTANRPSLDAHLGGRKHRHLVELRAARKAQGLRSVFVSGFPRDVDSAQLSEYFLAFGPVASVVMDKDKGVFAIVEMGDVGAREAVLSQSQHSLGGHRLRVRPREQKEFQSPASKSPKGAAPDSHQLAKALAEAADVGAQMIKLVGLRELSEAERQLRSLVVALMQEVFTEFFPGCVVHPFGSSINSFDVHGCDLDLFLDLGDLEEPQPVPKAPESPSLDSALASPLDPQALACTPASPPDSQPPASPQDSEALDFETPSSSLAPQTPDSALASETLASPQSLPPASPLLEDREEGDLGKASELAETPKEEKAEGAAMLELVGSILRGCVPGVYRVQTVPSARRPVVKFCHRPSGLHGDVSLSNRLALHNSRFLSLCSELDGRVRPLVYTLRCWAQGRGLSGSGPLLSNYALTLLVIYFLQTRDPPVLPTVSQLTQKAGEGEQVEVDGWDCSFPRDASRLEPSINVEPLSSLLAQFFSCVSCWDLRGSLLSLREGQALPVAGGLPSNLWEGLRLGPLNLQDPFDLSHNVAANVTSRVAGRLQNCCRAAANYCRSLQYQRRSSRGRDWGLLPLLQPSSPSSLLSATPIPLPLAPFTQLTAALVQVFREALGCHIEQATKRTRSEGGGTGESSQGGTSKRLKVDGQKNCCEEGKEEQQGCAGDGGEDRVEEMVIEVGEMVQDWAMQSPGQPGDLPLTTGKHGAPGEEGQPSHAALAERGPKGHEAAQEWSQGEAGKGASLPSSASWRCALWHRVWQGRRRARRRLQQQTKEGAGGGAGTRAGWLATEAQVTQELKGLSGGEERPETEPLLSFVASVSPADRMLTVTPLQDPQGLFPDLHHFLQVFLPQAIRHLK

[3] = target: T1, speckle-targeted PIPKIα regulated-poly(A) polymerase (Star-PAP/TUT1), endogenous (human (endogenous in HeLa and MDA-MB-231)); test: proximity ligation; remark: listed apart in the source
[4] = target: T1, speckle-targeted PIPKIα regulated-poly(A) polymerase (Star-PAP/TUT1), endogenous (human (endogenous in HeLa and MDA-MB-231)); test: co-IP; remark: listed apart in the source

## small heat shock protein HSP27, endogenous (from UniProt P04792 1-205)
[1]
  binding: binds
[2]
  binding: binds

## phosphatidylinositol 4-phosphate 5-kinase PIPKIα (PIP5K1A), endogenous (from UniProt Q99755 1-562) (enzyme)
Myc-Star-PAP
  binding: binds
[1]
  binding: binds
[2]
  binding: binds

## Myc-IPMK (from UniProt Q8NFU5 1-416) (enzyme)
[1]
  binding: binds

## PI 4-kinase PI4KIIα, endogenous (from UniProt Q9BTU6 1-479) (enzyme)
[1]
  binding: binds
[2]
  binding: binds

## nuclear PI 3-kinase IPMK, endogenous (from UniProt Q8NFU5 1-416) (enzyme)
[1]
  binding: binds
[2]
  binding: binds

B1: PI transfer protein PITPα, endogenous (protein, UniProt Q00169 1-270)
chain: MVLLKEYRVILPVSVDEYQVGQLYSVAEASKNETGGGEGVEVLVNEPYEKDGEKGQYTHKIYHLQSKVPTFVRMLAPEGALNIHEKAWNAYPYCRTVITNEYMKEDFLIKIETWHKPDLGTQENVHKLEPEAWKHVEAVYIDIADRSQVLSKDYKAEEDPAKFKSIKTGRGPLGPNWKQELVNQKDCPYMCAYKLVTVKFKWWGLQNKVENFIHKQERRLFTNFHRQLFCWLDKWVDLTMDDIRRMEEETKRQLDEMRQKDPVKGMTADD
[3]
  binding: binds
[4]
  binding: binds

B2: PI transfer protein PITPβ, endogenous (protein, UniProt P48739 1-271)
chain: MVLIKEFRVVLPCSVQEYQVGQLYSVAEASKNETGGGEGIEVLKNEPYEKDGEKGQYTHKIYHLKSKVPAFVRMIAPEGSLVFHEKAWNAYPYCRTIVTNEYMKDDFFIKIETWHKPDLGTLENVHGLDPNTWKTVEIVHIDIADRSQVEPADYKADEDPALFQSVKTKRGPLGPNWKKELANSPDCPQMCAYKLVTIKFKWWGLQSKVENFIQKQEKRIFTNFHRQLFCWIDKWIDLTMEDIRRMEDETQKELETMRKRGSVRGTSAADV
[3]
  binding: binds
[4]
  binding: binds

B3: small heat shock protein αB-crystallin, endogenous (protein, UniProt P02511 1-175)
chain: MDIAIHHPWIRRPFFPFHSPSRLFDQFFGEHLLESDLFPTSTSLSPFYLRPPSFLRAPSWFDTGLSEMRLEKDRFSVNLDVKHFSPEELKVKVLGDVIEVHGKHEERQDEHGFISREFHRKYRIPADVDPLTITSSLSSDGVLTVNGPRKQVSGPERTIPITREEKPAVTAAPKK
[3]
  binding: binds
[4]
  binding: binds
